# Results taken from publication doi:10.1101/2025.01.22.634223.
# B1: RAB-28, yeast two-hybrid fusion (protein, UniProt Q9XWR6 1-248)
# chain: MTTMGEDEAPALPKKSPLPEKIDEADVDDDPDDKVIKIVVVGDGASGKTSICQRFAKESFDKSYHQTLGLDFFSRRITLPHEMQVLVQVWDIGGQSIAGEMIDKYLTGANIVFLVYDVTNSKSFENAVDWLSVVKKNTKSSETPVKLVLMGNKTDLEERRVVSVEAHKNFATSNDMMPTYVSAKTGDTVFLTFRQAVAEVLNVGLSRAEVEADIEIVQGSVIEQPKQSDASYARRSDQSRSTSVCSIT
# B2: 6HIS::MYC:RRAB-28::6HIS (protein, UniProt Q9XWR6 1-248)
# chain: B1 chain
# Key:
# [1] = target: GDI-1 (wild type), yeast two-hybrid fusion (C. elegans); test: two-hybrid
# [2] = target: GST::GDI-1 (C. elegans); test: pull-down
Binder,binding [1],binding [2]
B1,binds,
B2,,no binding

# No constants are given. Whether binding was seen depends on the method and setting. For some assays here: Binding calls can cover weak binding; strength is not graded here. Where a sequence is shown, tags or fusion partners need not be part of it.
